Experiment [1] concerns the target HA-tagged murine GARP (murine). As to the kind of experiment: flow cytometry, BW5147 clone expressing HA-tagged mGARP.
Experiment [2] deals with HA-tagged hGARP Mut I (human). As to the kind of experiment: flow cytometry, BW5147 clones expressing HA-tagged forms of hGARP.
Experiment [3] has as its target HA-tagged hGARP Mut II (human). Described as above.

No constants are given. Whether binding was seen depends on the method and setting. For part of these data: Binding calls can cover weak binding; strength is not graded here.

B1: MHGARP8 (antibody, V domains shown)
VH: QVQLKESGPGLVAPSQSLSITCTVSGFSLTGYGINWVRQPPGKGLEWLGMIWSDGSTDYNSVLTSRLRISKDNSNSQVFLKMNSLQVDDTARYYCARDRNYYDYDGAMDYWGQGTSVTVSS
VL: DIQVTQSSSYLSVSLGDRVTITCKASDHIKNWLAWYQQKPGIAPRLLVSGATSLEAGVPSRFSGSGSGKNFTLSITSLQTEDVATYYCQQYWSTPWTFGGGTTLEIR
Turning to B1, the binding entry is listed as “no binding” in experiment [1], “binds” in experiment [2] and “binds” in experiment [3].

Values taken from EP2832747A1.
